B1: Putative glideosome-associated protein 40 (GAP40), endogenous (protein, UniProt Q8I3V1 1-456)
chain: MKFEKFNIPEWSDIERYFKDPELLTAEILFVALTLCNVFVMYRLFLDVIPYPIFVTWWQLAQGLLVAYVCGELGREFPKFAYFPKVEINENMLKVLFVPSIFYCLMLVLSNYLLYKTPCIASYPVLVSFTVVFHHLTRFIGCGEEYMPLRWKSIVFLLAAFIIGCFDSKTTGKGVIVWALLYALFSAIFRAGFMQKIMHLVDGKGNTLHNNQHLLGVLILPVLILLSGELSVFVHMPYDITSLHTWQMWGCLITVGTLPFIKNVISNRLVRRTGQGPWRFLEIISIILVFFIGMTYNAPSFKGYLAILCVIIGRSLGAFDVLLNASDYMHAEDERKRKNPRASYAKSRQGTQASKPFLSSADNEEDEESSFSSNDSKSYQGSQDYDDKESVNSSSQQYSVHKGTSHMDSSSNQTSHGVISADEGRGEHSRAATFKSKSKLSRNYSSKQHEMLDSQA
modifications: phosphorylated (labelled with [32P]phosphate in schizonts; sites not given)

Protein sequences, listed by entry. Tags and fused reporters are not part of them. Lines headed by an entry give the natural chain unless they say otherwise; changes in a name come on top.
UniProt Q8I5I8: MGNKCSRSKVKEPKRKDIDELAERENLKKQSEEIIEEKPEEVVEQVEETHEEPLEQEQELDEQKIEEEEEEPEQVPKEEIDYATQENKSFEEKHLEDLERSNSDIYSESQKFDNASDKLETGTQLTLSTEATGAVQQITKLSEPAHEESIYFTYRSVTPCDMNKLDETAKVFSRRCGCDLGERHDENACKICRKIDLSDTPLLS
UniProt Q8IDR3: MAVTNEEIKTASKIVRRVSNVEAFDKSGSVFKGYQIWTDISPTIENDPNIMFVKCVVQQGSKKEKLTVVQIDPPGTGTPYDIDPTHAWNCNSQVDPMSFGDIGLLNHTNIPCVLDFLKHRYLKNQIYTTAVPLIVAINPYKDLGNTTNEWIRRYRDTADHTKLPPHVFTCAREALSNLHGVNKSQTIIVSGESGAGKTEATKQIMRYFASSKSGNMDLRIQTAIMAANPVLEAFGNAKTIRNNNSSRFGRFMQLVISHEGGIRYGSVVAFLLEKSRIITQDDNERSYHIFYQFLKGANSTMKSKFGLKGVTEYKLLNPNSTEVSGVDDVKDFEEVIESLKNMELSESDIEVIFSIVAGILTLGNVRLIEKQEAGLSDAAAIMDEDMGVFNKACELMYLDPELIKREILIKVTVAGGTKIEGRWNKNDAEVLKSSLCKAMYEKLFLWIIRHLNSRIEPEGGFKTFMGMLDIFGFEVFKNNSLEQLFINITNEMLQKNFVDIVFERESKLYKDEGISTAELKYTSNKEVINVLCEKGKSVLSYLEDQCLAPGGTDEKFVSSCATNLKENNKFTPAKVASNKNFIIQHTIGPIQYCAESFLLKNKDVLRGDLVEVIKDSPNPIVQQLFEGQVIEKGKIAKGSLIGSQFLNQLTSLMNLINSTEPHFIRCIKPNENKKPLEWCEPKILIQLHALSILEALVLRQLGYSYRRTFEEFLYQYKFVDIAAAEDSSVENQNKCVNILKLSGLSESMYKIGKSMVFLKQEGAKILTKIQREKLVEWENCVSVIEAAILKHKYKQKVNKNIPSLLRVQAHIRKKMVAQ
UniProt Q8IFN1: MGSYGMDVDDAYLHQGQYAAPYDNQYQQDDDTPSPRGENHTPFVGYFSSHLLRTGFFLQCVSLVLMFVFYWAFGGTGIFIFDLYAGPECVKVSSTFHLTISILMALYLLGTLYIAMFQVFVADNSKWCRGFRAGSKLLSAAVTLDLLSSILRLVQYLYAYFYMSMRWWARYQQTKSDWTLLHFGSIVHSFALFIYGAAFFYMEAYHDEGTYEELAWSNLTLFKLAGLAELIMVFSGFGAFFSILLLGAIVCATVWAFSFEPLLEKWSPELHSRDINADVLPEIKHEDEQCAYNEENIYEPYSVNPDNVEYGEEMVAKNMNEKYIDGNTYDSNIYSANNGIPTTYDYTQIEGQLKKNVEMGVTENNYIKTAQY
UniProt Q8IM26: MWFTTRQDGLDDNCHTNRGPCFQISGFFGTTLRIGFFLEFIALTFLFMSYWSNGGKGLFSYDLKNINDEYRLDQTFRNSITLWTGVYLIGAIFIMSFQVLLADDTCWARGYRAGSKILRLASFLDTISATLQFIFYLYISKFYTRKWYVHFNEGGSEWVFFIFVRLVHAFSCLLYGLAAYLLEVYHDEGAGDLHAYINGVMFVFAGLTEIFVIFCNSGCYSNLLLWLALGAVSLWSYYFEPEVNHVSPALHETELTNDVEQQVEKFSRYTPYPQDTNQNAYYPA
UniProt Q8IJM4: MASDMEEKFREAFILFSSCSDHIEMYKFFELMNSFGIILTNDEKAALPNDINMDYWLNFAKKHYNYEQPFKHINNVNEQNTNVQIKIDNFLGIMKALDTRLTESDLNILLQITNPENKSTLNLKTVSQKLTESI

Results are given in words; binding and its absence hold for the method and conditions named. Binding seen in cells or lysates may run through a third protein. A yes stands for co-enrichment or nearness to the bait. Other partners may have been found.

One test has as its target P. falciparum GAP45 tagged internally with GFP (P. falciparum) (UniProt Q8I5I8). Nature of the test: affinity purification with mass spectrometry; GFP-Trap precipitate of GAP45-GFP schizont lysate, SDS-PAGE, SYPRO Ruby, three bands excised, tryptic digestion, LC-MS/MS; control 3D7.
In the case of B1, the binding entry was “binds”.

The next test has as its target P. falciparum MyoA-GFP (myosin A tagged at its C terminus with GFP, expressed from the endogenous locus) (P. falciparum) (UniProt Q8IDR3). Nature of the test: affinity purification with mass spectrometry; GFP-Trap precipitate of MyoA-GFP schizont lysate, run 4 mm into a gel, tryptic digestion, LC-MS/MS; control 3D7 with unmodified MyoA; two or more specific peptides.
For “Glideosome-associated protein 45 (GAP45), endogenous (from UniProt Q8I5I8 1-204)”, the binding entry is on record as “binds”. Still for that read-out and setting: in the case of “Glideosome-associated protein with multiple membrane spans 2 (GAPM2) (from UniProt Q8IFN1)” it was “binds”. As for “Glideosome-associated protein with multiple membrane spans 3 (GAPM3) (from UniProt Q8IM26)”, the binding result is on record as “binds”. For the molecule “P. falciparum essential light chain (PfELC), endogenous (from UniProt Q8IJM4 1-134)”, the binding result was “binds”. Regarding B1, the binding result is reported as “binds”.

These data come from article PMC5663884, “Compositional and expression analyses of the glideosome during the Plasmodium life cycle reveal an additional myosin light chain required for maximum motility” (The Journal of Biological Chemistry, 2017).
